Laboratory results reported in article PMC10204870, “Analysis of aptamer-target binding and molecular mechanisms by thermofluorimetric analysis and molecular dynamics simulation”.

Chains of the proteins cited; added tags and fusions are not shown. Residues count along the entry.
UniProt P02771, 19-609: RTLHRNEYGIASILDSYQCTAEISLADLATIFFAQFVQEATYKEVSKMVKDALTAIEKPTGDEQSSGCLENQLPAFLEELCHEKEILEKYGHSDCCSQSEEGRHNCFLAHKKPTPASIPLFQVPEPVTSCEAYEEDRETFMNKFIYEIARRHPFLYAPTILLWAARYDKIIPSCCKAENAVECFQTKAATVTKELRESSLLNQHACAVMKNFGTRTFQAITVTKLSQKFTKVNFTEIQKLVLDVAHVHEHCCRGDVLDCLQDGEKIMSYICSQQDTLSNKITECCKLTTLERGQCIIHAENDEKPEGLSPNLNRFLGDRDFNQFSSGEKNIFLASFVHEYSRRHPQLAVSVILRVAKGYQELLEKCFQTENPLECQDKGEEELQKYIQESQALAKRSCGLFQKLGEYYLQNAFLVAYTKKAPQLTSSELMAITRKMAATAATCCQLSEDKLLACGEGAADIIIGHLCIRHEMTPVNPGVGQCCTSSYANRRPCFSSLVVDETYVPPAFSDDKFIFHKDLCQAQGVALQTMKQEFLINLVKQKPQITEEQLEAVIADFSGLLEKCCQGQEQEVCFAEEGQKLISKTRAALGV

Molecular target: alpha-fetoprotein (AFP) (Homo sapiens) (UniProt P02771)
Assay: thermofluorimetric analysis (EvaGreen melting curves)
Settings: 20 mM HEPES-Na, 120 mM NaCl, 4 mM KCl, 2 mM MgCl2, 1 mM CaCl2, pH 7.35 (aptamer diluent), 30 min at room temperature, then melt 4-80 C with EvaGreen, AFP stock 1.45 nM, recombinant protein, label: EvaGreen dye (non-covalent), single-stranded DNA

## GTGACGCTCCTAACGCTGACTCAGGTGCAGTTCTCGACTCGGTCTTGATGTGGGTCCTGTCCGTCCGAACCAATC [AP273]
HEPES buffer 4 (highest ionic strength, lowest Tm), 4 nM aptamer, 1.45 nM AFP
  binding result: binds more weakly
HEPES buffer 9, less favorable than buffer 6
  binding result: binds more weakly

## ACCGACCGTGCTGGACTCTGTCGAAAGGATACTGAGTATTGAGGGGCGTCAGGTGGAAGAGTATGAGCGAGCGTTGCG [AP-L3-4]
1.25-80 nM and 1-5 nM aptamer, HEPES buffer with Na+, K+, Mg2+, Ca2+, bound peak weaker than AP273
  binding result: binds more weakly

Weaker means in comparison with the reference protein, sequence or condition of that experiment. The exact form of at least one protein or probe is not confirmed.
